This is one part of the list. Small differences around the control level are noise.
The targets below were run with Cc1nc(Nc2ncc(C(=O)Nc3c(C)cccc3Cl)s2)cc(N2CCN(CCO)CC2)n1 [dasatinib] (assay: log2 fold change of tryptic peptide abundance, ligand vs vehicle (limited proteolysis) (log2 ratio); higher = more trypsin-susceptible (destabilized)). Conditions: ligand concentration: 5 uM; sample: K562 cleared lysate.

Protein sequences, listed by entry. Tags and fused reporters are not part of them. Lines headed by an entry give the natural chain unless they say otherwise; changes in a name come on top.
UniProt Q86WB0: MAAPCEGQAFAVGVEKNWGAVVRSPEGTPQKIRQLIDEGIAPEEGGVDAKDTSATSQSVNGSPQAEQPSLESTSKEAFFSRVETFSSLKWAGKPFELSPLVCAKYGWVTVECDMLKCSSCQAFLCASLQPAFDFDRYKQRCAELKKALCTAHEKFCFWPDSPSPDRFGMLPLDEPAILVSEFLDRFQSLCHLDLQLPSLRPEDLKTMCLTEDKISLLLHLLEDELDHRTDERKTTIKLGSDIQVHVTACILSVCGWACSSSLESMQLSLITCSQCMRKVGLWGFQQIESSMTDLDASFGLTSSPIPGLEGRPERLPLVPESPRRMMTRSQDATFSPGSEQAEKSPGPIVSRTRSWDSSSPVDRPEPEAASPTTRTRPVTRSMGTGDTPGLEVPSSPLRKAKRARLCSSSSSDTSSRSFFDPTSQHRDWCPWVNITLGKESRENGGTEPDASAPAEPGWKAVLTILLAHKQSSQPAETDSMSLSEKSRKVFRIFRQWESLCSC
UniProt Q8IZL2, whole entry: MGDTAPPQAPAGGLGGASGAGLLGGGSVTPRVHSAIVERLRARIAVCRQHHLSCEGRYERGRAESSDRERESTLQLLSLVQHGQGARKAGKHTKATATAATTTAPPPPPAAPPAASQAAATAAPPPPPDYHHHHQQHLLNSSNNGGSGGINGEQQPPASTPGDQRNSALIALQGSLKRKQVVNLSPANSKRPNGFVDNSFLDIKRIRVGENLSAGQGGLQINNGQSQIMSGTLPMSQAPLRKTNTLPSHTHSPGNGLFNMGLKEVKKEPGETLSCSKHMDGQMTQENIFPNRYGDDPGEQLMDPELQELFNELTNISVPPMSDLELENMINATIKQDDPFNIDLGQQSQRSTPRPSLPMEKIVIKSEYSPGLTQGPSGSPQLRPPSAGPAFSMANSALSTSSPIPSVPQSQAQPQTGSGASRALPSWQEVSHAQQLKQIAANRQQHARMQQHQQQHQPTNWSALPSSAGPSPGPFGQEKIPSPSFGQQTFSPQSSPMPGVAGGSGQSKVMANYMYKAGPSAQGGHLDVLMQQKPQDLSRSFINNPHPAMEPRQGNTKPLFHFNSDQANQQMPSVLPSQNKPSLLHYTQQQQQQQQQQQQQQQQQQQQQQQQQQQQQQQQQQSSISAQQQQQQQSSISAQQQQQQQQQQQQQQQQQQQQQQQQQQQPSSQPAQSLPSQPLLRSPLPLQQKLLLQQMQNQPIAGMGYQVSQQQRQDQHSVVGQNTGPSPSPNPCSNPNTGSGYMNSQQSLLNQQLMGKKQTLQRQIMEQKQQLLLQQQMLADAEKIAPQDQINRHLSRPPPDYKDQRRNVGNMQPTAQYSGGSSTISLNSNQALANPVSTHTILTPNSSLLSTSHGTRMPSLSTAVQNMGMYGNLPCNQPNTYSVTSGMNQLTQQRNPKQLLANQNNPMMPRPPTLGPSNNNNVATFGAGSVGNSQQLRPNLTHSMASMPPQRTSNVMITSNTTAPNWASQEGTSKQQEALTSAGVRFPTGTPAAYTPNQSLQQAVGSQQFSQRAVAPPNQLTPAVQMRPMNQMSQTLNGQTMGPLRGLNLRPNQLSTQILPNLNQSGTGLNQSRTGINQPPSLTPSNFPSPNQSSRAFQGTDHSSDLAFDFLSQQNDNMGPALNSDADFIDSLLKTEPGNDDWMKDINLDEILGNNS
UniProt Q86WG3: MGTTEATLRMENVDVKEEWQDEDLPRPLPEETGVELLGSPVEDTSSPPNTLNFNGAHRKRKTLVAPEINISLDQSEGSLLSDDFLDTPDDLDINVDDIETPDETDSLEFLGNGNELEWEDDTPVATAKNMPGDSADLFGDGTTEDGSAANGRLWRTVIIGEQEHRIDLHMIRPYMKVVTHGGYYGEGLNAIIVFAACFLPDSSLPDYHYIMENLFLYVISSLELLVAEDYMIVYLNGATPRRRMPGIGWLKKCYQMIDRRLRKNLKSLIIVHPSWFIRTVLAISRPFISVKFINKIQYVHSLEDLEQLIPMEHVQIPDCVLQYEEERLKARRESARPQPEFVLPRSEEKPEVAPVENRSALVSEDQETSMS
UniProt Q8IXX5: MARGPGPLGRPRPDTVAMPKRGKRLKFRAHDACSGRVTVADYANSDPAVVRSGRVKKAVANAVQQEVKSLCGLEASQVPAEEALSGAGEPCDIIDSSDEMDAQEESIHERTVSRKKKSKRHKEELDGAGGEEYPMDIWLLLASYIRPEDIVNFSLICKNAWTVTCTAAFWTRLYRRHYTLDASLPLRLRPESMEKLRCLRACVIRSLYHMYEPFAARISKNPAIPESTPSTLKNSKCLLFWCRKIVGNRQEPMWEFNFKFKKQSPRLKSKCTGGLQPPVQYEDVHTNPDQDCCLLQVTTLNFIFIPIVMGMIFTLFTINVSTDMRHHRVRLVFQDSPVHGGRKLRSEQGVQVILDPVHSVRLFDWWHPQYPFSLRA
UniProt Q8IWB9: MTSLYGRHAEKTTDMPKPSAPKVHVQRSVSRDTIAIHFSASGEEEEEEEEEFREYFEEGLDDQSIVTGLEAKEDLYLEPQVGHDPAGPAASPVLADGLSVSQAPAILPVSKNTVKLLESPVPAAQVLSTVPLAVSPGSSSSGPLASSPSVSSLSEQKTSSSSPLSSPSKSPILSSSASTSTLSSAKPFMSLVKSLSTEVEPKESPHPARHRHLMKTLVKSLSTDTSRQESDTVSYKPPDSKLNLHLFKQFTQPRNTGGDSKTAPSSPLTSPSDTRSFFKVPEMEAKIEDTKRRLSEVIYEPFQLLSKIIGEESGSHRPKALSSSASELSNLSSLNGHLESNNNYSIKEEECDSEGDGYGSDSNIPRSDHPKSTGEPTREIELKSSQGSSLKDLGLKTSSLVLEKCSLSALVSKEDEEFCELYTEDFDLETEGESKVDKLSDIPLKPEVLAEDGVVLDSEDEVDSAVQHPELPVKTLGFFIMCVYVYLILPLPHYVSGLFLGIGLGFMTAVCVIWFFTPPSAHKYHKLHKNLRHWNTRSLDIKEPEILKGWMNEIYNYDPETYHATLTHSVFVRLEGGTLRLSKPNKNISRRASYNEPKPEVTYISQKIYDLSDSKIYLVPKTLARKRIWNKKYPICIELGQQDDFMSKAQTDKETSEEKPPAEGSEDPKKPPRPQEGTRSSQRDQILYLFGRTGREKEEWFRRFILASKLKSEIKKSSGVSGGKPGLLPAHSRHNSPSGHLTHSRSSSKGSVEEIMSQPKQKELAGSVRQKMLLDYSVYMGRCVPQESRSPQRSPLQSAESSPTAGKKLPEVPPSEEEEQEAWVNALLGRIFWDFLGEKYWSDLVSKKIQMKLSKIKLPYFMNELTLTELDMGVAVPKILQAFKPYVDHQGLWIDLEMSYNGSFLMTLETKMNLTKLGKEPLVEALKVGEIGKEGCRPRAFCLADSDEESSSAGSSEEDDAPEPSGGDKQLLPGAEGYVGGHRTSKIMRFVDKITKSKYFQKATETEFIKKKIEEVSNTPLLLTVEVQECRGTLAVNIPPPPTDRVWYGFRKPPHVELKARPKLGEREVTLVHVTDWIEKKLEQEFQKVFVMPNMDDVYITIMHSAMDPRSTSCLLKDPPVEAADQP
UniProt Q8IYB8: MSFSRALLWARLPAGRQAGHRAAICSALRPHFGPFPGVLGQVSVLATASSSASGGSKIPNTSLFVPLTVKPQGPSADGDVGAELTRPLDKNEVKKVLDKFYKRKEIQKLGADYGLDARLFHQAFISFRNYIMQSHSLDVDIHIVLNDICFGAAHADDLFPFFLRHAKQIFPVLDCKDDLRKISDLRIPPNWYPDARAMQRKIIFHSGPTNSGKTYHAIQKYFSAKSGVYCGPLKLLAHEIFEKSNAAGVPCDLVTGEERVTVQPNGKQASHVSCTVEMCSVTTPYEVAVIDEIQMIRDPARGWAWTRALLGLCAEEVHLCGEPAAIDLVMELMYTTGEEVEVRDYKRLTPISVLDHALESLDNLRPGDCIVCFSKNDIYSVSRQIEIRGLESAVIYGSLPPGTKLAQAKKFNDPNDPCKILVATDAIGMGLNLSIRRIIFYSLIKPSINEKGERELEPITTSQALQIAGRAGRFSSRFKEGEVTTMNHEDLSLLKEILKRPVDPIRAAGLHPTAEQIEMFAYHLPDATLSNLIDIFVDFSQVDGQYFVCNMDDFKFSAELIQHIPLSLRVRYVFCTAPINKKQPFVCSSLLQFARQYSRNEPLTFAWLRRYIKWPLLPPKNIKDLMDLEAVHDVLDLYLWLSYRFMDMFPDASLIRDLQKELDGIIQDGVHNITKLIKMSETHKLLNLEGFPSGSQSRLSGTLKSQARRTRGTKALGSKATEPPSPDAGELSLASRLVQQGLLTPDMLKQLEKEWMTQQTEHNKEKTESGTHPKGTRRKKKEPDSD
UniProt Q8IXK0: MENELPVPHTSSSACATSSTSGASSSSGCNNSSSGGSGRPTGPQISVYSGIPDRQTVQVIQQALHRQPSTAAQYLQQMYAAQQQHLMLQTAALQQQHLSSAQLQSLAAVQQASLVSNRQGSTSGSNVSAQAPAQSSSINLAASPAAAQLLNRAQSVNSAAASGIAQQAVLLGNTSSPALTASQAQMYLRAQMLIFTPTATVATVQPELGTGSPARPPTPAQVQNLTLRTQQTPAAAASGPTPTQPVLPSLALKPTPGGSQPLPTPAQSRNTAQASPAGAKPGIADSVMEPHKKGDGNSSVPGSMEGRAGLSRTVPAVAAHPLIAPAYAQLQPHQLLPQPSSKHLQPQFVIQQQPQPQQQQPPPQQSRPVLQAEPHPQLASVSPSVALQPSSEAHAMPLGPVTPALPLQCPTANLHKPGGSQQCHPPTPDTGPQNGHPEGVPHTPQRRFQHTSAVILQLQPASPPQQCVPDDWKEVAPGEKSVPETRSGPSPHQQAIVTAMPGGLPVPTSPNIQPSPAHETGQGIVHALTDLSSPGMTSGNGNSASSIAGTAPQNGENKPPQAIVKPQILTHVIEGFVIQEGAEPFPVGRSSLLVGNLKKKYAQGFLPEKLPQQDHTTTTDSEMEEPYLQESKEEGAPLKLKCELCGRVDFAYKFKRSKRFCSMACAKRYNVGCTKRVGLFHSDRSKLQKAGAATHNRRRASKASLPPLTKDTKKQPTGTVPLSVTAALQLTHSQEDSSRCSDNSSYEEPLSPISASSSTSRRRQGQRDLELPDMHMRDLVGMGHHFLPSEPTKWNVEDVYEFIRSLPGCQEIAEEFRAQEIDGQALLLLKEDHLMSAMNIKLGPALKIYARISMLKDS
UniProt Q8IYB5: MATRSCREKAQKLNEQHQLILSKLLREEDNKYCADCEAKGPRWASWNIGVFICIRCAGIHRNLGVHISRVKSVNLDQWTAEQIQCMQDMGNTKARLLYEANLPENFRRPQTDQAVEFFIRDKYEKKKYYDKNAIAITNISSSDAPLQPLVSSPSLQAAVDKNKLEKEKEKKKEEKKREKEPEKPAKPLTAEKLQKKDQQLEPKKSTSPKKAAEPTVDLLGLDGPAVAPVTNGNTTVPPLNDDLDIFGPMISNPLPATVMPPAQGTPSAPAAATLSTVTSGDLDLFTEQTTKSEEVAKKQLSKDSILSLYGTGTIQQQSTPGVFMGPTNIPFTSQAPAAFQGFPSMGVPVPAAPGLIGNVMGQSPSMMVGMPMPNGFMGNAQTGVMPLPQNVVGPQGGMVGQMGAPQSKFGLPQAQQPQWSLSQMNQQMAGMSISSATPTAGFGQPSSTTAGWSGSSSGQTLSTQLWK
UniProt Q86WR0: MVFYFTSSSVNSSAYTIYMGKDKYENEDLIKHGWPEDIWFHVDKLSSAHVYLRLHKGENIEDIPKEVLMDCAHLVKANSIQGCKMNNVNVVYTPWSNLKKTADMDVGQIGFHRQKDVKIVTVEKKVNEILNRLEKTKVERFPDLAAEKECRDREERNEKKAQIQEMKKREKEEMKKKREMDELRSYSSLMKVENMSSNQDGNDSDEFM
UniProt Q8IY47: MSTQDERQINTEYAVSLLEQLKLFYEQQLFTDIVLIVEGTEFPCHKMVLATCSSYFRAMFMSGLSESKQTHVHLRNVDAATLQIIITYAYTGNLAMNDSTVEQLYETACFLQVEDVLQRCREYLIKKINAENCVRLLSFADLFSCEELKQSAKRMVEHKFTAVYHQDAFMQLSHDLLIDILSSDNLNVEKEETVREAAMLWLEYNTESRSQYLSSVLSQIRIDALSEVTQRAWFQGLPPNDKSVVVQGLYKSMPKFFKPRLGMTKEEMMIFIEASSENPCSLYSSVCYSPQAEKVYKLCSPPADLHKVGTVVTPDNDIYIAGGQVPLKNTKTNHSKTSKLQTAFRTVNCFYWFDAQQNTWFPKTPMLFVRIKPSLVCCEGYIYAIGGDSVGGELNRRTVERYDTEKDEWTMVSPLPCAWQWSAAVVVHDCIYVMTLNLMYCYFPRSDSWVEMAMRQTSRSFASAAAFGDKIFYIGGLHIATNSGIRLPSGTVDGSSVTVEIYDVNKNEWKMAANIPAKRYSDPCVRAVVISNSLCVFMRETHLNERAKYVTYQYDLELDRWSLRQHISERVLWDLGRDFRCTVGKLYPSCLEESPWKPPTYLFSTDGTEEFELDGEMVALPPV

**Q.** With “RPAP2 (peptide sequence: ETEKLNLR, peptide start residue: 455) (UniProt Q8IXW5)” as the target, how does the log2 fold change read?
**A.** The log2 fold change was -0.714.

**Q.** With “ZC3HC1 (peptide sequence: SMGTGDTPGLEVPSSPLRK, peptide start residue: 381) (UniProt Q86WB0)” as the target, how does the log2 fold change read?
**A.** The log2 fold change was -0.253.

**Q.** How did the log2 fold change turn out when “SPATS2 (peptide sequence: FTCDVETLKK, peptide start residue: 354) (UniProt Q86XZ4)” was run?
**A.** The log2 fold change was 0.676.

**Q.** Which log2 fold change does the source give for “MAML2 (peptide sequence: HMDGQMTQENIFPNR, peptide start residue: 278) (UniProt Q8IZL2)” here?
**A.** Its log2 fold change is 0.231.

**Q.** With “UniProt Q86WG3 (peptide sequence: SLIIVHPSWFIR, peptide start residue: 243)” as the target, how does the log2 fold change read?
**A.** The log2 fold change was -0.312.

**Q.** With “HOMEZ (peptide sequence: TKEQLAILK, peptide start residue: 364) (UniProt Q8IX15)” as the target, how does the log2 fold change read?
**A.** Its log2 fold change is 0.135.

**Q.** How did the log2 fold change turn out when “LSR (peptide sequence: AMSEVTSLHEDDWR, peptide start residue: 430) (UniProt Q86X29)” was run?
**A.** The log2 fold change was 0.122.

**Q.** With “UniProt Q8IXX5 (peptide sequence: SLYHMYEPFAAR, peptide start residue: 206)” as the target, how does the log2 fold change read?
**A.** Its log2 fold change is 0.297.

**Q.** How did the log2 fold change turn out when “ARHGAP12 (peptide sequence: AFYVPAQYVK, peptide start residue: 61) (UniProt Q8IWW6)” was run?
**A.** Its log2 fold change is 0.275.

**Q.** Which log2 fold change does the source give for “RTTN (peptide sequence: GTHHSQNPSPGSSSPRPSVVGR, peptide start residue: 297) (UniProt Q86VV8)” here?
**A.** Its log2 fold change is -0.0228.

**Q.** Which log2 fold change does the source give for “TEX2 (peptide sequence: ATETEFIKK, peptide start residue: 1003) (UniProt Q8IWB9)” here?
**A.** The log2 fold change was 0.398.

**Q.** “UniProt Q86XN6 (peptide sequence: IHTEDNAYK, peptide start residue: 431)” was tested. Which log2 fold change did it give?
**A.** The log2 fold change was 0.346.

**Q.** Which log2 fold change does the source give for “TMEM123 (peptide sequence: TIDEHDAII, peptide start residue: 200) (UniProt Q8N131)” here?
**A.** The log2 fold change was 0.00821.

**Q.** Which log2 fold change does the source give for “SMYD4 (peptide sequence: TLNYGLGESEK, peptide start residue: 390) (UniProt Q8IYR2)” here?
**A.** Its log2 fold change is 0.274.

**Q.** Which log2 fold change does the source give for “ABI1 (peptide sequence: ALIESYQNLTR, peptide start residue: 18) (UniProt Q8IZP0)” here?
**A.** The log2 fold change was 0.089.

**Q.** Which log2 fold change does the source give for “SUPV3L1 (peptide sequence: EWMTQQTEHNK, peptide start residue: 754) (UniProt Q8IYB8)” here?
**A.** The log2 fold change was -0.511.

**Q.** With “NDUFAF2 (peptide sequence: TFQPGSWMPR, peptide start residue: 153) (UniProt Q8N183)” as the target, how does the log2 fold change read?
**A.** The log2 fold change was -0.167.

**Q.** Which log2 fold change does the source give for “UniProt Q8IY82 (peptide sequence: KQQEIRAQEK, peptide start residue: 266)” here?
**A.** The log2 fold change was -0.65.

**Q.** With “PHC2 (peptide sequence: DLVGMGHHFLPSEPTK, peptide start residue: 778) (UniProt Q8IXK0)” as the target, how does the log2 fold change read?
**A.** Its log2 fold change is -0.121.

**Q.** With “RAVER1 (peptide sequence: VSFCAPGPPGR, peptide start residue: 294) (UniProt Q8IY67)” as the target, how does the log2 fold change read?
**A.** Its log2 fold change is -0.452.

**Q.** With “SMAP1 (peptide sequence: KDQQLEPK, peptide start residue: 196) (UniProt Q8IYB5)” as the target, how does the log2 fold change read?
**A.** The log2 fold change was 0.22.

**Q.** Which log2 fold change does the source give for “RBM45 (peptide sequence: SYTEEDLREK, peptide start residue: 130) (UniProt Q8IUH3)” here?
**A.** The log2 fold change was 0.358.

**Q.** For “CCDC25 (peptide sequence: MNNVNVVYTPWSNLKK, peptide start residue: 85) (UniProt Q86WR0)”, which log2 fold change is on record?
**A.** Its log2 fold change is -0.548.

**Q.** “ZNF444 (peptide sequence: EKPHACCECGK, peptide start residue: 247) (UniProt Q8N0Y2)” was tested. Which log2 fold change did it give?
**A.** The log2 fold change was 0.43.

**Q.** How did the log2 fold change turn out when “KBTBD2 (peptide sequence: AWFQGLPPNDK, peptide start residue: 232) (UniProt Q8IY47)” was run?
**A.** The log2 fold change was -0.191.

**Q.** “MISP (peptide sequence: ERESVLR, peptide start residue: 310) (UniProt Q8IVT2)” was tested. Which log2 fold change did it give?
**A.** The log2 fold change was -0.056.

**Q.** How did the log2 fold change turn out when “TAX1BP1 (peptide sequence: LQLCLAEK, peptide start residue: 325) (UniProt Q86VP1)” was run?
**A.** Its log2 fold change is -0.629.

**Q.** With “THNSL1 (peptide sequence: IVGQNSGTSMK, peptide start residue: 173) (UniProt Q8IYQ7)” as the target, how does the log2 fold change read?
**A.** Its log2 fold change is 0.164.
